Reference: the supplement of paper PMC10849652
Some of the results follow.

Chains of the proteins cited; added tags and fusions are not shown. Lines headed by an entry give the natural chain unless they say otherwise; changes in a name come on top.
UniProt P42892: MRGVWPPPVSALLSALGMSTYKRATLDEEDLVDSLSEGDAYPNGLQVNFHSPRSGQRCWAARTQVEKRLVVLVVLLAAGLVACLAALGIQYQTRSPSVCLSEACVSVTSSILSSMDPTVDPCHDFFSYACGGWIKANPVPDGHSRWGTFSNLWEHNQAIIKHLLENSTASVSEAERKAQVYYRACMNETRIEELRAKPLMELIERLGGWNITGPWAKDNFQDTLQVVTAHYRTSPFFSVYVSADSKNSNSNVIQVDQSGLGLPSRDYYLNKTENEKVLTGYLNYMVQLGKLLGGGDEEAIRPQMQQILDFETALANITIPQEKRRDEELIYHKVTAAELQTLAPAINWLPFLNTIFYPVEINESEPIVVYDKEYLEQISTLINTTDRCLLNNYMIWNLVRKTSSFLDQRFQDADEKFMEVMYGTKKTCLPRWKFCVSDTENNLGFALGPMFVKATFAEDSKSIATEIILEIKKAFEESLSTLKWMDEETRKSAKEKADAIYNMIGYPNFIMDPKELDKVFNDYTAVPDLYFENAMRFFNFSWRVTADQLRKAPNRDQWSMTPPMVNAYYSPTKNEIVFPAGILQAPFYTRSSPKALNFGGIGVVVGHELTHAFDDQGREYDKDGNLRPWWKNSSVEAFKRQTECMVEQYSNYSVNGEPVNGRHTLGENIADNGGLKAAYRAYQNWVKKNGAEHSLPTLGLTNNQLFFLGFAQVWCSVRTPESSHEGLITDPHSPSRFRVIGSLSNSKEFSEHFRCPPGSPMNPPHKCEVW
UniProt Q13011: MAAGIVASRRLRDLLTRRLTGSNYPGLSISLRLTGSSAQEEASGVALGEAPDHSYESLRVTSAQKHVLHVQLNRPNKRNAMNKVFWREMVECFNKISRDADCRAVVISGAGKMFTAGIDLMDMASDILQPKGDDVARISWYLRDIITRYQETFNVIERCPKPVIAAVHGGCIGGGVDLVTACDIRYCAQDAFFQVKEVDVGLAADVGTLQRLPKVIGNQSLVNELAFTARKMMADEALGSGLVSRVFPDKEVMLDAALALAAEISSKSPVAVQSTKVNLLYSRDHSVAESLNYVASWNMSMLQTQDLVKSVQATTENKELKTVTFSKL
UniProt Q6P2E9: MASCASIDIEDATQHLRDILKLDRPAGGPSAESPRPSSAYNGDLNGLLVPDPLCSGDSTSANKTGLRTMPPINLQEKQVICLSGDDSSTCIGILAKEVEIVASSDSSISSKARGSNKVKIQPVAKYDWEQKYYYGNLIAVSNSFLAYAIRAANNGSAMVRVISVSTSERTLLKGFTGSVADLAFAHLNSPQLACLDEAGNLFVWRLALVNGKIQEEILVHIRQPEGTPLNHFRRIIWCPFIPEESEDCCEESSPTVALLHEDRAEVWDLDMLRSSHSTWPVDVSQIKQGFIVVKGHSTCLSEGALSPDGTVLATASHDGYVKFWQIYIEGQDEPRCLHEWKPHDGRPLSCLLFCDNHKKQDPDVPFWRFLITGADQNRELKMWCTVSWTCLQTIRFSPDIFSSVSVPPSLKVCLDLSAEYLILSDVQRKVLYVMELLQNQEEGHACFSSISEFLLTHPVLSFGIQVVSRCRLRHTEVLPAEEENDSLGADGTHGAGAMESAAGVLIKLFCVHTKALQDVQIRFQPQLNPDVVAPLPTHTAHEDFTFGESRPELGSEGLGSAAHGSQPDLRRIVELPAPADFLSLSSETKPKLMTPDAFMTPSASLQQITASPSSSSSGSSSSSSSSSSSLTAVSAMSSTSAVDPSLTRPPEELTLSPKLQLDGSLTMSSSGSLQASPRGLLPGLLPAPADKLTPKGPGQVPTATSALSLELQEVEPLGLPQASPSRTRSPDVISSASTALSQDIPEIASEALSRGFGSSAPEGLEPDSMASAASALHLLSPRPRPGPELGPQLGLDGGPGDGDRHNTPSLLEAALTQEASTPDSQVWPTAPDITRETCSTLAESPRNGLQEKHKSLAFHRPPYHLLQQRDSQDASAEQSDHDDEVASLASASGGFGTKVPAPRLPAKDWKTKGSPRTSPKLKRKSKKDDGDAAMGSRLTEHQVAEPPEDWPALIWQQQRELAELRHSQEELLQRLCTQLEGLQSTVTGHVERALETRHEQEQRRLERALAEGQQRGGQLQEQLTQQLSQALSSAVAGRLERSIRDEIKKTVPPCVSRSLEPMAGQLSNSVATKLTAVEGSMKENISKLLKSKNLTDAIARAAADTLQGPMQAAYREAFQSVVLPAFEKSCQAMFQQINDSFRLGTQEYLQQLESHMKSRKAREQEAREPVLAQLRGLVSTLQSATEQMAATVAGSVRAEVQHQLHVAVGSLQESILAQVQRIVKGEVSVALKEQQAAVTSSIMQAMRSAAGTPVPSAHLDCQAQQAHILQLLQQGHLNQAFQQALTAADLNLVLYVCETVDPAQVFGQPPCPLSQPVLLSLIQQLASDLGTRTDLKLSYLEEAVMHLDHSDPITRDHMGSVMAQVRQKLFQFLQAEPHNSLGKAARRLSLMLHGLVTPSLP
UniProt P63172, whole entry, looked up: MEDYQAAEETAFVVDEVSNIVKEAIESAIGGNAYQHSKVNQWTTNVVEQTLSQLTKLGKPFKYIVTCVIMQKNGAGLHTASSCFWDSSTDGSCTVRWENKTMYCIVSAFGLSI
UniProt Q8WWZ3: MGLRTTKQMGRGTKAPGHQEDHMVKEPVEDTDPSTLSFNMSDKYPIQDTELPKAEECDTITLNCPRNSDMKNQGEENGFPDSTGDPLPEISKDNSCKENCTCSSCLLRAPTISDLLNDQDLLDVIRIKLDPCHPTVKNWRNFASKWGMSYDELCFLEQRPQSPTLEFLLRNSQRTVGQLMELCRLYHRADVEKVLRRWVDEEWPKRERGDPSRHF
UniProt Q92785, whole entry, looked up: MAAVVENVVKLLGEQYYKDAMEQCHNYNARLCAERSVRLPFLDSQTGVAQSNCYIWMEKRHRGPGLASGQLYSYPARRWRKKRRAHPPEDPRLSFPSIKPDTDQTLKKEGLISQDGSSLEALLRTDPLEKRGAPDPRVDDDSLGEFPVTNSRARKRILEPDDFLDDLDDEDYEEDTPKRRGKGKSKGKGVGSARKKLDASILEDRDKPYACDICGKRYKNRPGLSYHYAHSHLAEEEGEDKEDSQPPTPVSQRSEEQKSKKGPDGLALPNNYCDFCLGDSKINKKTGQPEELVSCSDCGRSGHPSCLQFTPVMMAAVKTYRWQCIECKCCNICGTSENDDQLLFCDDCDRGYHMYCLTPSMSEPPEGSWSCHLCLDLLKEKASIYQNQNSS
UniProt O43237, whole entry, looked up: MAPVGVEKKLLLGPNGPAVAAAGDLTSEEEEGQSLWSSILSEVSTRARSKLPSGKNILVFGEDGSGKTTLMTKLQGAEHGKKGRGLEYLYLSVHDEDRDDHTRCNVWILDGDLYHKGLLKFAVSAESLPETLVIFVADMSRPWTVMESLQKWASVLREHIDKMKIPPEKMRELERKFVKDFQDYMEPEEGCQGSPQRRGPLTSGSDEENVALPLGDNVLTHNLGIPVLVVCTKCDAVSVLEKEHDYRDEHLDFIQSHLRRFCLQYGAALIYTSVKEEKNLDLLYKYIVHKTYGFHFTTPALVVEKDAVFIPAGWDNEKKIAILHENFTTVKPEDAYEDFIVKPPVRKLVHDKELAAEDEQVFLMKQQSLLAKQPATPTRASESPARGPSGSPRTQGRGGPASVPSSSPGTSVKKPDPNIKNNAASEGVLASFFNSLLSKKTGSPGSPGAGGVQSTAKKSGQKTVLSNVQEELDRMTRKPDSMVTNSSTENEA
UniProt P55039: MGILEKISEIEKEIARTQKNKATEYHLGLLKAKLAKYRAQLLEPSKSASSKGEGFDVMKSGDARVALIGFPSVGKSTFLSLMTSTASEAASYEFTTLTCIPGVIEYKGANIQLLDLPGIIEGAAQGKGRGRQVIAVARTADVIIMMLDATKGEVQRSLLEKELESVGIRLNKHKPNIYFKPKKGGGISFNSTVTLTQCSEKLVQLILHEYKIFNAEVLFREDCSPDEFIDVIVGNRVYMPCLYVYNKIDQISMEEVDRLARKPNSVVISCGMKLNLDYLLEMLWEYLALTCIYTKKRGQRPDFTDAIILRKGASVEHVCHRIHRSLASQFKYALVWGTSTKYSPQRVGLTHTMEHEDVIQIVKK
UniProt Q8N3D4: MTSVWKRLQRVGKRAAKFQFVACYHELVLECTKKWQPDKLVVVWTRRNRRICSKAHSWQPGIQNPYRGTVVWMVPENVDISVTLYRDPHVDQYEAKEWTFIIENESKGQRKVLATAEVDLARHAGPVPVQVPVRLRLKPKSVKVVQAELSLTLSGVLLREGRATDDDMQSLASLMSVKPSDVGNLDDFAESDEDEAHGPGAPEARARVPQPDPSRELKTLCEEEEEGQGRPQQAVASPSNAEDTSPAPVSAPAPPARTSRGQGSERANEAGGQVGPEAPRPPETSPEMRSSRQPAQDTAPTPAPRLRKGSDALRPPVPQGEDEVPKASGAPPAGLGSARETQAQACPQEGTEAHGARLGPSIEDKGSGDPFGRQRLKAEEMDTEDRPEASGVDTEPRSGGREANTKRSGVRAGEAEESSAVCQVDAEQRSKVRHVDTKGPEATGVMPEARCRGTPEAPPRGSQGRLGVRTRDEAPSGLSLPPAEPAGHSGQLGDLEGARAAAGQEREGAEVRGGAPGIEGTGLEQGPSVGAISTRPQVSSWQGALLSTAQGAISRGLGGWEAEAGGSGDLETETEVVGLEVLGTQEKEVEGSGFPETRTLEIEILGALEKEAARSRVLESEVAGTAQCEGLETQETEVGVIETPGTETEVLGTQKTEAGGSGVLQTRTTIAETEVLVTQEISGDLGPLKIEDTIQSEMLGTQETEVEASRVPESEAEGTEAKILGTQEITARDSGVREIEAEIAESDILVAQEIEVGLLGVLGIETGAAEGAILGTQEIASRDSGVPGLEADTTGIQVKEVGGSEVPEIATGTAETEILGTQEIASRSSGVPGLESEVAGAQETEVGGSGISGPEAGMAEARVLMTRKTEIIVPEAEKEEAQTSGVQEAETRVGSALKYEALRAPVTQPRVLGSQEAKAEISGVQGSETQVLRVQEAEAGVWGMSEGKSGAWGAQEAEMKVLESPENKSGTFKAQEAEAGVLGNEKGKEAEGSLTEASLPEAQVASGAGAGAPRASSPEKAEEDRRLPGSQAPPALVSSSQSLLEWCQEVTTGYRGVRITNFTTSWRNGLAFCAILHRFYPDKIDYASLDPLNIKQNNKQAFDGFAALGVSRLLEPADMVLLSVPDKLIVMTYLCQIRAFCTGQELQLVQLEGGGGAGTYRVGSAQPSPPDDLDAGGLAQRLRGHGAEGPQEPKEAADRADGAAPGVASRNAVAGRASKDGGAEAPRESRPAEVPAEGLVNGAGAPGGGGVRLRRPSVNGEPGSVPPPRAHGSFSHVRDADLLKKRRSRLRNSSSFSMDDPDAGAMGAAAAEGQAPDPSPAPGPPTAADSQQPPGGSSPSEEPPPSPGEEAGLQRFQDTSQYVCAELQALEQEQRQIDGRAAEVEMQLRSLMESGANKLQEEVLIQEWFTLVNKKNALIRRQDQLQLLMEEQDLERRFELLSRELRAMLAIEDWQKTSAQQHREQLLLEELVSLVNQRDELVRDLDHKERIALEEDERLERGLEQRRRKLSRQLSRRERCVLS
UniProt Q8N5C7: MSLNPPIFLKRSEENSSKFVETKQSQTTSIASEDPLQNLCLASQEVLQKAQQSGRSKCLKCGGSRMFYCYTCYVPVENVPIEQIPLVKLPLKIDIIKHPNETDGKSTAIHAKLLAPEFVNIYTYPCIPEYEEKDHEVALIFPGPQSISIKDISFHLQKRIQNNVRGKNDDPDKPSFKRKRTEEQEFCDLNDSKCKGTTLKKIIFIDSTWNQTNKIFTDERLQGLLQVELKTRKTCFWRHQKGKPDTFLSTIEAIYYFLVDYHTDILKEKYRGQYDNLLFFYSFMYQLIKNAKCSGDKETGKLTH
UniProt O14640: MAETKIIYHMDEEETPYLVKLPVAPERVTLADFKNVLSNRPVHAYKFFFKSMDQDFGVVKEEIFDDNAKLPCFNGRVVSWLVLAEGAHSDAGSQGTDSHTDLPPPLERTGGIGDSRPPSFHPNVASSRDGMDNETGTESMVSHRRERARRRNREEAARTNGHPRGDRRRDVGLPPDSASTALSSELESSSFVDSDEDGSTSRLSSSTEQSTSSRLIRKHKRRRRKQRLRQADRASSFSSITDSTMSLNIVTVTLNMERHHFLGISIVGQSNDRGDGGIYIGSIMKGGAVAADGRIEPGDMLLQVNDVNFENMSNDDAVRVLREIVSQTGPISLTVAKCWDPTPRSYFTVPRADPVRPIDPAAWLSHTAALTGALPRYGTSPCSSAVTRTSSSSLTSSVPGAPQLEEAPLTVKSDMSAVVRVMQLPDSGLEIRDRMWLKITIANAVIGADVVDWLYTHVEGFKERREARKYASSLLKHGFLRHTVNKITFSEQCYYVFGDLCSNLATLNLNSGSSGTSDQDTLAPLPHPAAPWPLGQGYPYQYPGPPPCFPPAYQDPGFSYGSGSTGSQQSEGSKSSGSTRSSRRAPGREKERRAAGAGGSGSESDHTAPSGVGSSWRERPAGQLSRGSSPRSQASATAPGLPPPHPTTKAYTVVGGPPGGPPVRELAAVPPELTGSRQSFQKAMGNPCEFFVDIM

How the values were obtained:
Experiment in all cases: log2 fold change, soluble protein after heating vs DMSO (PISA); higher = thermal stabilisation; K562 lysate, 10 uM; active = over 0.2 and 3.5 SD of the protein, either way, in both replicates (recomputed)
erlotinib = compound: C#Cc1cccc(Nc2ncnc3cc(OCCOC)c(OCCOC)cc23)c1 [erlotinib]
Procedure, shortened: (§1)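 Soluble protein was defined as the supernatant remaining after 21,000xg for 90 min, following pooling of heated aliquots and adjustment to 0.5% NP-40 at 4°C. Before that, crude K562 extract at 1 mg/mL protein in PBS pH 7.4 with 1 mM MgCl2 was treated with 10 μM compound for 30 min and heated for 3 min across 48°C-58°C. Quantification used TMTpro 16plex LC-MS/MS with channel sums equalised, and values are log-two fold changes in thermal stability relative to solvent controls from duplicates.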

[1] = compound: C/C(=N\NC(=O)C1=CC(=CC=C1)S(=O)(=O)N2CCOCC2)/C3=C(C=CC(=C3)Cl)O
Procedure, shortened: as §1

[2] = compound: C1=CC(=CC=C1C2=NC3=C(N2)C=C(C=C3)C(=O)N)OC4=CC=C(C=C4)Cl
Procedure, shortened: as §1

[3] = compound: C1=CC2=C(C=CC(=C2)/C=C\3/C(=O)NC(=NCC4=CC=CS4)S3)N=C1
Procedure, shortened: as §1

[4] = compound: C1=CC2=NC=CN=C2C=C1/C=C/3\C(=O)NC(=O)S3
Procedure, shortened: as §1

[5] = compound: C1=CC=C(C=C1)C2=NC(=C(N2)C3=CC=NC=C3)C4=CC(=C(C=C4)Cl)O
Procedure, shortened: as §1

[6] = compound: C1=CC=C2C(=C1)C3=NNC4=CC=CC(=C43)C2=O
Procedure, shortened: as §1

[7] = compound: C1CCN(C1)C(=O)NC2=CC=CC(=C2)NC3=NC=C(C(=N3)NCCC4=CN=CN4)Br
Procedure, shortened: as §1

[8] = compound: C1CN(CCC1(CC2=CC=C(C=C2)Cl)N)C3=NC=NC4=C3C=CN4
Procedure, shortened: as §1

IRAK-1-4 Inhibitor I = compound: C1COCCN1CCN2C3=CC=CC=C3N=C2NC(=O)C4=CC(=CC=C4)[N+](=O)[O-] [IRAK-1-4 Inhibitor I]
Procedure, shortened: as §1

| Target | log2 fold change (erlotinib) | log2 fold change [1] | log2 fold change [2] | log2 fold change [3] | log2 fold change [4] | log2 fold change [5] | log2 fold change [6] | log2 fold change [7] | log2 fold change [8] | log2 fold change (IRAK-1-4 Inhibitor I) |
| --- | --- | --- | --- | --- | --- | --- | --- | --- | --- | --- |
| DPP7 (UniProt Q9UHL4) | inactive: -0.005 | inactive: -0.091 | inactive: 0.015 | inactive: -0.032 | inactive: -0.033 | inactive: 0.002 | inactive: 0.043 | inactive: -0.03 | inactive: 0.043 | inactive: -0.011 |
| ECE1 (UniProt P42892) | inactive: -0.021 | inactive: 0.002 | inactive: 0.03 | inactive: -0.077 | inactive: 0.008 | inactive: -0.029 | inactive: -0.013 | inactive: -0.007 | inactive: -0.019 | inactive: -0.013 |
| ECH1 (UniProt Q13011) | inactive: -0.041 | inactive: -0.049 | inactive: -0.022 | inactive: 0.002 | inactive: -0.022 | active: 0.499 | inactive: 0.232 | inactive: -0.009 | inactive: 0.017 | inactive: -0.007 |
| DPM1 (UniProt O60762) | inactive: -0.009 | inactive: -0.039 | inactive: -0.036 | inactive: 0.056 | inactive: -0.015 | inactive: -0.007 | inactive: 0.041 | inactive: -0.022 | inactive: -0.014 | inactive: -0.008 |
| EEF1A2 (UniProt Q05639) | inactive: 0.015 | inactive: 0.011 | inactive: 0.021 | inactive: -0.018 | inactive: -0.035 | inactive: -0.002 | inactive: -0.034 | inactive: 0.006 | inactive: 0.006 | inactive: -0.002 |
| EDC4 (UniProt Q6P2E9) | inactive: 0.002 | inactive: -0.026 | inactive: -0.022 | inactive: 0.001 | inactive: 0.006 | inactive: -0.001 | inactive: -0.02 | inactive: -0.015 | inactive: 0.014 | inactive: 0.013 |
| DSC2 (UniProt Q02487) | inactive: 0.075 | inactive: -0.101 | inactive: 0.049 | inactive: -0.034 | inactive: 0.167 | inactive: 0.043 | inactive: 0.069 | inactive: 0.071 | inactive: -0.11 | inactive: 0.01 |
| DTD2 (UniProt Q96FN9) | inactive: -0.138 | inactive: -0.074 | inactive: -0.001 | inactive: -0.1 | inactive: 0.144 | inactive: 0.053 | inactive: 0.01 | inactive: 0.032 | inactive: -0.023 | inactive: -0.151 |
| EHMT1 (UniProt Q9H9B1) | inactive: 0.042 | inactive: -0.033 | inactive: 0.065 | inactive: -0.011 | inactive: -0.046 | inactive: -0.018 | inactive: -0.014 | inactive: 0.005 | inactive: -0.01 | inactive: 0.028 |
| EFL1 (UniProt Q7Z2Z2) | inactive: -0.006 | inactive: 0 | inactive: -0.005 | inactive: 0.002 | inactive: 0.008 | inactive: 0.001 | inactive: -0.059 | inactive: 0.01 | inactive: 0.007 | inactive: 0.015 |
| EGLN1 (UniProt Q9GZT9) | inactive: 0.006 | inactive: 0.016 | inactive: 0.034 | inactive: 0.028 | inactive: -0.027 | inactive: 0.006 | inactive: -0.005 | inactive: 0.015 | inactive: -0.019 | inactive: -0.021 |
| DYNLT1 (UniProt P63172) | inactive: 0.073 | inactive: -0.178 | inactive: 0.084 | inactive: -0.031 | inactive: 0.086 | inactive: 0.071 | inactive: -0.017 | inactive: -0.125 | inactive: 0.06 | inactive: 0.017 |
| EFTUD2 (UniProt Q15029) | inactive: -0.018 | inactive: 0.007 | inactive: 0.006 | inactive: 0 | inactive: -0.01 | inactive: 0.007 | inactive: 0.012 | inactive: -0.003 | inactive: -0.01 | inactive: -0.011 |
| DTYMK (UniProt P23919) | inactive: -0.013 | inactive: 0.025 | inactive: 0.01 | inactive: -0.017 | inactive: 0.024 | inactive: -0.016 | inactive: 0.004 | inactive: 0.01 | inactive: -0.027 | inactive: -0.028 |
| EDARADD (UniProt Q8WWZ3) | inactive: 0.013 | inactive: -0.022 | inactive: 0.045 | inactive: 0.019 | inactive: -0.027 | inactive: 0.049 | inactive: -0.03 | inactive: -0.035 | inactive: -0.064 | inactive: 0.031 |
| DPF2 (UniProt Q92785) | inactive: -0.036 | inactive: -0.047 | inactive: -0.01 | inactive: 0.016 | inactive: -0.018 | inactive: 0.003 | inactive: -0.004 | inactive: 0.027 | inactive: 0.021 | inactive: 0.025 |
| DYNC1LI2 (UniProt O43237) | inactive: 0.001 | inactive: 0.011 | inactive: -0.001 | inactive: -0.011 | inactive: 0.009 | inactive: -0.018 | inactive: -0.03 | inactive: -0.027 | inactive: 0.002 | inactive: 0.037 |
| DYM (UniProt Q7RTS9) | inactive: -0.072 | inactive: -1.99 | inactive: -0.081 | inactive: 0.002 | inactive: 0.015 | inactive: -0.017 | inactive: -0.062 | inactive: -0.03 | inactive: 0.119 | inactive: 0.024 |
| EDC3 (UniProt Q96F86) | inactive: -0.008 | inactive: -0.01 | inactive: -0.023 | inactive: -0.02 | inactive: -0.031 | inactive: 0.035 | inactive: -0.011 | inactive: -0.027 | inactive: -0.013 | inactive: 0 |
| EFHD1 (UniProt Q9BUP0) | inactive: 0.02 | inactive: 0.203 | inactive: 0.004 | inactive: 0.066 | inactive: -0.032 | inactive: 0.066 | inactive: -0.179 | inactive: -0.055 | inactive: 0.105 | inactive: -0.01 |
| DRG2 (UniProt P55039) | inactive: 0.03 | inactive: -0.056 | inactive: 0.028 | inactive: 0.001 | inactive: -0.005 | inactive: -0.012 | inactive: -0.044 | inactive: 0.009 | inactive: 0.008 | inactive: 0.008 |
| DYNC1I2 isoform 5 (UniProt Q13409) | inactive: -0.005 | inactive: 0.001 | inactive: -0.001 | inactive: 0.009 | inactive: 0 | inactive: 0.009 | inactive: 0.019 | inactive: -0.007 | inactive: 0.016 | inactive: 0.018 |
| EDRF1 (UniProt Q3B7T1) | inactive: 0.015 | inactive: -0.091 | inactive: 0.014 | inactive: 0.029 | inactive: -0.051 | inactive: -0.051 | inactive: -0.108 | inactive: -0.047 | inactive: 0.042 | inactive: 0.092 |
| EHBP1 isoform 2 (UniProt Q8NDI1) | inactive: 0.018 | inactive: 0.133 | inactive: 0.009 | inactive: -0.038 | inactive: -0.079 | inactive: 0.062 | inactive: -0.001 | inactive: -0.056 | inactive: -0.013 | inactive: 0.008 |
| EHBP1L1 (UniProt Q8N3D4) | inactive: 0.015 | inactive: -0.021 | inactive: -0.037 | inactive: 0.051 | inactive: -0.003 | inactive: 0.016 | inactive: -0.059 | inactive: 0 | inactive: 0.031 | inactive: -0.006 |
| DSCC1 (UniProt Q9BVC3) | inactive: 0.035 | inactive: 0.154 | inactive: -0.043 | inactive: -0.036 | inactive: 0.127 | inactive: 0.054 | inactive: 0.02 | inactive: -0.012 | inactive: -0.016 | inactive: 0.013 |
| DUSP12 (UniProt Q9UNI6) | inactive: -0.015 | inactive: -0.014 | inactive: 0.005 | inactive: -0.018 | inactive: 0.028 | inactive: -0.009 | inactive: 0.001 | inactive: 0.014 | inactive: 0.009 | inactive: 0.007 |
| ECI1 (UniProt P42126) | inactive: -0.028 | inactive: -0.087 | inactive: -0.009 | inactive: 0.003 | inactive: -0.015 | inactive: -0.04 | inactive: 0.052 | inactive: 0.015 | inactive: 0.007 | inactive: -0.018 |
| DTWD1 (UniProt Q8N5C7) | inactive: 0.01 | inactive: 0.082 | inactive: -0.039 | inactive: -0.004 | inactive: -0.048 | inactive: -0.025 | inactive: 0.039 | inactive: 0.01 | inactive: 0.047 | inactive: -0.01 |
| DVL1 (UniProt O14640) |  | inactive: 0.264 |  | inactive: -0.139 |  |  | inactive: -0.138 | inactive: -0.107 | inactive: -0.077 |  |

Copied from the list:
Value of DPF2 (UniProt Q92785) under log2 fold change (erlotinib): inactive: -0.036
Value of DRG2 (UniProt P55039) under log2 fold change [3]: inactive: 0.001

Reprinted at random: 2 records from the list, in no set order.

| Target | log2 fold change (erlotinib) | log2 fold change [1] | log2 fold change [2] | log2 fold change [3] | log2 fold change [4] | log2 fold change [5] | log2 fold change [6] | log2 fold change [7] | log2 fold change [8] | log2 fold change (IRAK-1-4 Inhibitor I) |
| --- | --- | --- | --- | --- | --- | --- | --- | --- | --- | --- |
| ECH1 (UniProt Q13011) | inactive: -0.041 | inactive: -0.049 | inactive: -0.022 | inactive: 0.002 | inactive: -0.022 | active: 0.499 | inactive: 0.232 | inactive: -0.009 | inactive: 0.017 | inactive: -0.007 |
| EGLN1 (UniProt Q9GZT9) | inactive: 0.006 | inactive: 0.016 | inactive: 0.034 | inactive: 0.028 | inactive: -0.027 | inactive: 0.006 | inactive: -0.005 | inactive: 0.015 | inactive: -0.019 | inactive: -0.021 |
